# According to PubChem BioAssay (EPA / NIEHS):
# By UniProt entry, the sequences of proteins in these tests, tags left out. Where a name states a change or a piece, a line headed by the entry shows the natural chain unless it says otherwise.
# UniProt P21728, whole entry, looked up: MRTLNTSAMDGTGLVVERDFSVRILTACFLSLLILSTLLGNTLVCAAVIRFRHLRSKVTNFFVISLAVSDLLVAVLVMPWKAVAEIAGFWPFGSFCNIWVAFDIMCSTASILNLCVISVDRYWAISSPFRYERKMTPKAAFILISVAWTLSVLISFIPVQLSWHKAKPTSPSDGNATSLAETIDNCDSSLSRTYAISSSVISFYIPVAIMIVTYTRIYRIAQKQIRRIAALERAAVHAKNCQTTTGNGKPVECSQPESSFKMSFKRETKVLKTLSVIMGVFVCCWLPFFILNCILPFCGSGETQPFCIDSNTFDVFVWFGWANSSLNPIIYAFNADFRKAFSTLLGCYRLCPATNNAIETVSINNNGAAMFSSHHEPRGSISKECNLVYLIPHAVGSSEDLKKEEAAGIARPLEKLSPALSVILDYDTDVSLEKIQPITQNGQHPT
# UniProt P41143, whole entry, looked up: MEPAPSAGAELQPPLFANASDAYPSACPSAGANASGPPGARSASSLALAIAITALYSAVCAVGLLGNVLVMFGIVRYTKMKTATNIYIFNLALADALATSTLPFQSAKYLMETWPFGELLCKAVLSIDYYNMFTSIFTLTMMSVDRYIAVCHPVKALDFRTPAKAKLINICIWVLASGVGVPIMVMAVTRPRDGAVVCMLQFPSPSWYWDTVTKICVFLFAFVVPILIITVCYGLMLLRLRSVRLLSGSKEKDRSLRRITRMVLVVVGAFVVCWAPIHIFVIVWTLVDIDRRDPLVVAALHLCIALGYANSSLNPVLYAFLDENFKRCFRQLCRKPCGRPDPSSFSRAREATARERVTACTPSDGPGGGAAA
# UniProt P70536: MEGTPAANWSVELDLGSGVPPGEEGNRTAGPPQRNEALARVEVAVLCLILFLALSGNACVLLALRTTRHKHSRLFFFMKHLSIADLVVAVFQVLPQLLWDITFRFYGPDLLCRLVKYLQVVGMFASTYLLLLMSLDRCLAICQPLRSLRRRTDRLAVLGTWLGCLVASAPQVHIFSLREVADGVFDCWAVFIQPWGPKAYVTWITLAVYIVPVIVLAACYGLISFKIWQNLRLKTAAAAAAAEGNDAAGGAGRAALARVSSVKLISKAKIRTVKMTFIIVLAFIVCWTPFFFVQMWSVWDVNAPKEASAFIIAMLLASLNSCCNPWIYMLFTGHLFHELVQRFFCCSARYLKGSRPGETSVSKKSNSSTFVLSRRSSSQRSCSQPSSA
# UniProt P04629: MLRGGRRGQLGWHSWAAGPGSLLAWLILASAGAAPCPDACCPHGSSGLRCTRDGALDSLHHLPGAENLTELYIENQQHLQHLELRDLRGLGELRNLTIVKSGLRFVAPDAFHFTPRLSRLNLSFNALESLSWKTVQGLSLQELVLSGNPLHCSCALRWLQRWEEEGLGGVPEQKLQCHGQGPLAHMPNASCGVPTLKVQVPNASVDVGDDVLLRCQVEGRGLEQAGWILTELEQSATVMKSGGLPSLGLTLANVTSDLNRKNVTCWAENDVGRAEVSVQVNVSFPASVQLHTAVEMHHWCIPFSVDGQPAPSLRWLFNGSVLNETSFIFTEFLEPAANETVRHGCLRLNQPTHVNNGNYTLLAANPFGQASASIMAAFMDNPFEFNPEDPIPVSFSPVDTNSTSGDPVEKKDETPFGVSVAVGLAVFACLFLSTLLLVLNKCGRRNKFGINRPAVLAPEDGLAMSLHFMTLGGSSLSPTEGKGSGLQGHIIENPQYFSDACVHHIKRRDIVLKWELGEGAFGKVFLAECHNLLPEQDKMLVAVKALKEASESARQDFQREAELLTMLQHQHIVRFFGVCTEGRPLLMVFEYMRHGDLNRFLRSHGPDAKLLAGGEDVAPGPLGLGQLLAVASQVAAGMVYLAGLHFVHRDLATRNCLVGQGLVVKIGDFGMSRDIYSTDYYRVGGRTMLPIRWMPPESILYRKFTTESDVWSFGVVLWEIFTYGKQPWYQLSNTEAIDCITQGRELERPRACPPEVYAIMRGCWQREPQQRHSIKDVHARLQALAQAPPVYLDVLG
# UniProt P49146, whole entry, looked up: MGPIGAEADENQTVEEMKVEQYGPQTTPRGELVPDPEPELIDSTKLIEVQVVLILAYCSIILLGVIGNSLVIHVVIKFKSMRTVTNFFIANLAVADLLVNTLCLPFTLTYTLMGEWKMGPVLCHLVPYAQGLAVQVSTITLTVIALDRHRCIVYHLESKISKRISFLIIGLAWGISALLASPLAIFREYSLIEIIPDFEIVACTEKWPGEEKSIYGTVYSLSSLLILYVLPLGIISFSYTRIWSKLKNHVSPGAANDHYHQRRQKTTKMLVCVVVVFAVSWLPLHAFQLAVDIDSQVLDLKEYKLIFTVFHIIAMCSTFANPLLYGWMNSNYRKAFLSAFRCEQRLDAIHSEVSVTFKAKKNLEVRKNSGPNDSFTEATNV
# UniProt P25101, whole entry, looked up: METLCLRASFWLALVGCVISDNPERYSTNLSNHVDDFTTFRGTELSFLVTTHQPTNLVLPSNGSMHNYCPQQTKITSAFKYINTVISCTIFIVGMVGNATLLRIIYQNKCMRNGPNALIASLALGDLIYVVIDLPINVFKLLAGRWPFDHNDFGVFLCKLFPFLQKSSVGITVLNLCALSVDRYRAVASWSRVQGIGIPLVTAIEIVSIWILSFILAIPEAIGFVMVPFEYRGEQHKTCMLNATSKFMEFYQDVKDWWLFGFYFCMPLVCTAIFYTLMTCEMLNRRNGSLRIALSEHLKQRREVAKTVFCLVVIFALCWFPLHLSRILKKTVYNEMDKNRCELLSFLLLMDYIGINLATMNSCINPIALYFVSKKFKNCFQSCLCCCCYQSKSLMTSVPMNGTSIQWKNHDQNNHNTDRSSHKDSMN
# UniProt P29323: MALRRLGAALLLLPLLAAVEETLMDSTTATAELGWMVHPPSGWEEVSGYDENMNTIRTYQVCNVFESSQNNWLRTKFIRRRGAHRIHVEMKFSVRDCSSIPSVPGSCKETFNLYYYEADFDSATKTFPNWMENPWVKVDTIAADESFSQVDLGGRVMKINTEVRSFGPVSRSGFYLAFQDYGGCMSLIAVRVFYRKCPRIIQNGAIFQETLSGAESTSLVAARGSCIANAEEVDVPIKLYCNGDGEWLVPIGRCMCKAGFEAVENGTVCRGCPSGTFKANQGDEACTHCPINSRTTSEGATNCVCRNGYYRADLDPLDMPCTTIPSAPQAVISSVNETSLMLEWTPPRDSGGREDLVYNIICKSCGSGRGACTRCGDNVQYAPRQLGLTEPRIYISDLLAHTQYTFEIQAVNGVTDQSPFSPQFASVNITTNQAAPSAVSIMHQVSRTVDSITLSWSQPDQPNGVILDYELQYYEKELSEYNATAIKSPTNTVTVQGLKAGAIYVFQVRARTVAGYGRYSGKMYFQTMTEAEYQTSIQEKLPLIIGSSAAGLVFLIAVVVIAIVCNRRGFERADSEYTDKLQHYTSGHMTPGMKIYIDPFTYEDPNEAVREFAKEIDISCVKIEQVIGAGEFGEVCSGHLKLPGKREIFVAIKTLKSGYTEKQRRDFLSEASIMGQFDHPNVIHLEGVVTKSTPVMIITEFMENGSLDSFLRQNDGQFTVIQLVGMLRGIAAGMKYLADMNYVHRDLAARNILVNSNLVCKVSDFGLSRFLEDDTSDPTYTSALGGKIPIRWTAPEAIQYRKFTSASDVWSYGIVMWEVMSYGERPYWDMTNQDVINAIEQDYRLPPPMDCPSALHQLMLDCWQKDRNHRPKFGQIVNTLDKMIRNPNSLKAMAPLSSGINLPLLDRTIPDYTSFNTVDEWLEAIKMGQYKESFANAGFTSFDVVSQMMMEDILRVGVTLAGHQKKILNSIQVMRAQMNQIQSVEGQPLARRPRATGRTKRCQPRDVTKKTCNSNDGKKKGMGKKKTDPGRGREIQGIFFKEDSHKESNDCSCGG
# UniProt P28646: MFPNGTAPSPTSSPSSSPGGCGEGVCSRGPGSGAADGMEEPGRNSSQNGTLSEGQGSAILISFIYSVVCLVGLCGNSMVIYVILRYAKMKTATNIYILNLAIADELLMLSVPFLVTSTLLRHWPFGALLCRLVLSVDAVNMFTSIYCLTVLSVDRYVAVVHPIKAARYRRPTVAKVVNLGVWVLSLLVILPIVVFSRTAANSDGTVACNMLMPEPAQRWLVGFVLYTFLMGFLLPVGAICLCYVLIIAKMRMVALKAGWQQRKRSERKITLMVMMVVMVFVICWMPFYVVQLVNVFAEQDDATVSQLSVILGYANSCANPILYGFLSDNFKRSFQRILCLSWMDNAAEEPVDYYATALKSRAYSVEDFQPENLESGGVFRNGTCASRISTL
# UniProt P19643, whole entry, looked up: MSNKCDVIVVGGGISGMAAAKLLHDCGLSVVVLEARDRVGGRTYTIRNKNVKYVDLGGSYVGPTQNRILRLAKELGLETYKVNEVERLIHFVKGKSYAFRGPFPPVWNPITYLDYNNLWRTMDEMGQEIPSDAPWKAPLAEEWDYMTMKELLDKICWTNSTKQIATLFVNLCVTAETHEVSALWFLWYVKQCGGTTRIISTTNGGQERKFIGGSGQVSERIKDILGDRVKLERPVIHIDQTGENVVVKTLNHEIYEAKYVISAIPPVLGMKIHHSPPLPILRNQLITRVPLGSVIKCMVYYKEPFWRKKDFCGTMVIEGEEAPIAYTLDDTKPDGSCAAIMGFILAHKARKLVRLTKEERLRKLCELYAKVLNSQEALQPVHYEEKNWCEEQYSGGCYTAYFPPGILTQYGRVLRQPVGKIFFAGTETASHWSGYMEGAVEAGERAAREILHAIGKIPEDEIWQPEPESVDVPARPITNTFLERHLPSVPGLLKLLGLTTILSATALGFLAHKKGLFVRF
# UniProt P70606, whole entry, looked up: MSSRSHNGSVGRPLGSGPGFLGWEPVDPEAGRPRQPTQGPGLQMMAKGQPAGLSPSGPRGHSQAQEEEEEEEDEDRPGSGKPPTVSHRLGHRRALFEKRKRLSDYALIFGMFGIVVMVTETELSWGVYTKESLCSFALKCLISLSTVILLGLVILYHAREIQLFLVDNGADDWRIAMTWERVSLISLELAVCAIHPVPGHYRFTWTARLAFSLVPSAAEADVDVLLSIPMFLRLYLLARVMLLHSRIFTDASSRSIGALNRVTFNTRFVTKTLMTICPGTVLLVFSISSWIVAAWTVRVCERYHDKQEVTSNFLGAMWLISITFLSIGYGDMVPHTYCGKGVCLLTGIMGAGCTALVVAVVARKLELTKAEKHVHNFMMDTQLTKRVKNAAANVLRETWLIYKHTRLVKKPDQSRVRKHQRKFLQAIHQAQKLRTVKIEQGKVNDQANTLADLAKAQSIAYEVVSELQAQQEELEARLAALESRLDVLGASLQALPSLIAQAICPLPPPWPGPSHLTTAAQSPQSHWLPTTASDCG
# UniProt P10275: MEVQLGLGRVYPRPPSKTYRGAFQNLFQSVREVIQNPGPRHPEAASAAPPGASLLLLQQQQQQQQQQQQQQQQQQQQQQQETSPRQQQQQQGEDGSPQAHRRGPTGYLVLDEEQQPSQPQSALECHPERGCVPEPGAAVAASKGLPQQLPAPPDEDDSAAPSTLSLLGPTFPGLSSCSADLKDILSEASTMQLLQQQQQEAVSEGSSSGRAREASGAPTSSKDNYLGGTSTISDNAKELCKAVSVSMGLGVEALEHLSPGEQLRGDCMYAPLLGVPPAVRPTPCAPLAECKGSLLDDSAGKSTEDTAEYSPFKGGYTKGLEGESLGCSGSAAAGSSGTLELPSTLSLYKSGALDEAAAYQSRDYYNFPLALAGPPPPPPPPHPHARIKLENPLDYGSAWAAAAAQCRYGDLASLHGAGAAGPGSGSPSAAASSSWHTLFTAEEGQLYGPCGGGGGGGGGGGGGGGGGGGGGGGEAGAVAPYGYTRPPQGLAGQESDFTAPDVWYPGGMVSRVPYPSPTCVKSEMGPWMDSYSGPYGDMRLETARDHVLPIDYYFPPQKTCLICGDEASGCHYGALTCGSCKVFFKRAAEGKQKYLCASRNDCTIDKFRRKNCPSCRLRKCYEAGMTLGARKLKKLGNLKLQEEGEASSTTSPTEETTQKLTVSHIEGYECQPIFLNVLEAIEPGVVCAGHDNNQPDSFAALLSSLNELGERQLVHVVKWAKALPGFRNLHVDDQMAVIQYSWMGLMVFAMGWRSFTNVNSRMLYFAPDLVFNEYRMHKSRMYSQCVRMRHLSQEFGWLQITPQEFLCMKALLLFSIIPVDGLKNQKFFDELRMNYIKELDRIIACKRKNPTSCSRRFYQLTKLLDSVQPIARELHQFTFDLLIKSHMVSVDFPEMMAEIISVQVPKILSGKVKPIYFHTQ
# UniProt P67775, whole entry, looked up: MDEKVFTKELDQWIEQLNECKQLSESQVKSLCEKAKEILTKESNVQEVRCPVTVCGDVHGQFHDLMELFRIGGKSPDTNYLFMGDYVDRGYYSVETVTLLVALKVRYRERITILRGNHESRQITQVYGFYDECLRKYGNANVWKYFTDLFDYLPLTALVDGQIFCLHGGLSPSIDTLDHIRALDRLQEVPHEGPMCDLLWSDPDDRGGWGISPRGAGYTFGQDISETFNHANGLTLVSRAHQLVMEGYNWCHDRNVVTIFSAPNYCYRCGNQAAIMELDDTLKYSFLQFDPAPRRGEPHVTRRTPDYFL
# This list was built around the results that the source calls inconclusive (neither active nor inactive); the mix of calls is not that of the screen. For some of these results: Where the call is inconclusive, the potency comes from a doubtful curve fit. The source made the active and inactive calls. The calls were made as follows: active = hit-call score of the fitted dose curve at least 0.9, where 1 is the maximum; inconclusive = response in the unintended direction; inactive = score below 0.9.
# Columns and labels:
# [1] = target: D(1A) dopamine receptor (Homo sapiens) (UniProt P21728); experiment: NVS_GPCR_hDRD1: NovaScreen (NVS) G Protein-Coupled Receptor Assay for human Dopamine Receptor D1 (DRD1) (AID 2283269)
# Outline: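 Cell-free competition with radioligand, filter-trapped and scintillation-counted 1 h post-dose, using HEK293-derived human D1 preparation. Duplicate single-point testing at 25 uM first, then concentration series for actives; DMSO served as baseline, loss-of-signal scored.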
# [2] = target: human Opioid Receptor Delta 1 (Opiate D1), OPRD1 (gene 4985) (UniProt P41143); experiment: NVS_GPCR_hOpiate_D1: NovaScreen (NVS) G Protein-Coupled Receptor Assay for human Opioid Receptor Delta 1 (Opiate D1) (AID 2283280)
# Outline: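 Radioligand displacement on membranes from CHO cells expressing the receptor, read by filter scintillation counting 1 h after dosing. Duplicate single-point screen at 25 uM, then concentration series for actives; loss of signal versus DMSO.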
# [3] = target: rat Oxytocin Receptor (OXT), Oxtr (gene 25342) (UniProt P70536); experiment: NVS_GPCR_rOXT: NovaScreen (NVS) G Protein-Coupled Receptor Assay for rat Oxytocin Receptor (OXT) (AID 2283330)
# Outline: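 Radioligand displacement on rat uterine membranes, 1 h incubation, filter-based scintillation counting. Chemicals were screened in duplicate at 25 uM, and those passing threshold were retested in concentration-response up to 50 uM. Loss of binding was fitted versus DMSO.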
# [4] = target: human Tropomyosin Receptor Kinase A (TRKA), NTRK1 (gene 4914) (UniProt P04629); experiment: NVS_ENZ_hTrkA: NovaScreen (NVS) Enzymatic Assay for human Tropomyosin Receptor Kinase A (TRKA) (AID 2283224)
# Outline: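 Recombinant human TrkA activity read after 1 h by fluorescence with electrophoretic mobility shift separating substrate and product. Primary screen in duplicate at 25 uM; actives were rerun in concentration-response up to 50 uM. Loss of signal versus DMSO.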
# [5] = read-out: alkyl and aryl transferase (GSTA2), GSTA2 (gene 2939); experiment: CLD_GSTA2_6hr: CellzDirect (CLD) Gene Expression Assay for alkyl and aryl transferase (GSTA2) at 6 hours (AID 2283666)
# Outline: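 Primary human hepatocytes from two donor preparations were dosed daily with fresh compound at multiple concentrations, 0.2% DMSO vehicle. GSTA2 mRNA was measured at 6 hours by qNPA chemiluminescence; induction fitted relative to DMSO, with cytotoxicity flagged morphologically.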
# [6] = target: Neuropeptide Y receptor type 2 (Homo sapiens) (UniProt P49146); experiment: NVS_GPCR_hNPY2: NovaScreen (NVS) G Protein-Coupled Receptor Assay for human Neuropeptide Receptor Y2 (NPY2) (AID 2283277)
# Outline: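 Radioligand binding on membranes extracted from SK-N-MC cells, cell-free, read 1 h after dosing by filter-based scintillation counting. Loss of signal vs DMSO. Primary screen in duplicate at 25 uM; actives followed up in concentration-response up to 50 uM.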
# [7] = target: rat Constitutive Nitric Oxide Synthase (CNOS), Nos1 (gene 24598) (UniProt P29476); experiment: NVS_ENZ_rCNOS: NovaScreen (NVS) Enzymatic Assay for rat Constitutive Nitric Oxide Synthase (CNOS) (AID 2283236)
# Outline: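 Enzyme activity in rat brain membrane preparation, read 1 h after dosing by filter-based radiometric scintillation counting. Primary screen in duplicate at 25 uM; actives (e.g., ≥30% inhibition) then run in concentration-response up to 50 uM.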
# [8] = target: human Endothelin Receptor Type A (ETA), EDNRA (gene 1909) (UniProt P25101); experiment: NVS_GPCR_hETA: NovaScreen (NVS) G Protein-Coupled Receptor Assay for human Endothelin Receptor Type A (ETA) (AID 2283265)
# Outline: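 Cell-free radioligand displacement using SH-SY5Y-derived protein, 3 h incubation, filter-based scintillation counting. Primary screen in duplicate at 25 uM; actives then run in concentration-response up to 50 uM; loss of binding fitted versus DMSO.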
# [9] = target: human Epidermal Growth Factor Receptor (EGFR), EGFR (gene 1956) (UniProt P00533); experiment: NVS_ENZ_hEGFR: NovaScreen (NVS) Enzymatic Assay for human Epidermal Growth Factor Receptor (EGFR) (AID 2283151)
# Outline: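 Cell-free kinase assay, fluorescence plus electrophoretic mobility shift separating substrate and product, read 1 hour after dosing; loss of signal vs DMSO. Duplicate screen at 25 uM, then concentration-response to 50 uM.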
# [10] = target: human Ephrin type-B Receptor 2 (EphB2), EPHB2 (gene 2048) (UniProt P29323); experiment: NVS_ENZ_hEphB2: NovaScreen (NVS) Enzymatic Assay for human Ephrin type-B Receptor 2 (EphB2) (AID 2283156)
# Outline: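 Recombinant kinase with fluorescent substrate, product separated by electrophoretic mobility shift, read 1 h after dosing. Duplicate 25 uM screen, then singleton concentration-response to 50 uM max; loss of signal versus DMSO.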
# [11] = target: human Protein Tyrosine Phosphatase Non-receptor Type 1 (PTPN1), PTPN1 (gene 5770) (UniProt P18031); experiment: NVS_ENZ_hPTPN1: NovaScreen (NVS) Enzymatic Assay for human Protein Tyrosine Phosphatase Non-receptor Type 1 (PTPN1) (AID 2283201)
# Outline: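 Cell-free fluorogenic-substrate activity assay on recombinant enzyme, read 1.33 h after dosing by fluorescence and electrophoretic mobility shift; loss of signal vs DMSO baseline. Primary screen in duplicate at 25 uM, hits then run in concentration-response up to 50 uM.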
# [12] = target: rat Somatostatin Receptor (SST), Sstr1 (gene 25033) (UniProt P28646); experiment: NVS_GPCR_rSST: NovaScreen (NVS) G Protein-Coupled Receptor Assay for rat Somatostatin Receptor (SST) (AID 2283314)
# Outline: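 Rat forebrain membranes; radioligand displacement read by filter-based scintillation counting 1 h after dosing. Primary screen in duplicate at 25 uM. Actives (e.g., 30% inhibition) were rerun as concentration-response to 50 uM max and fitted against DMSO.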
# [13] = CCTE_Shafer_MEA_dev_active_electrodes_number: CCTE's Neural Network Formation Assay for Number of Active Electrodes, Shafer Lab (AID 2284040);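 also: potency for loss of active electrodes versus DMSO so lower counts are hits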
# Outline: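 Primary rat cortical neurons on 16-electrode MEA wells, exposed from day 0 through day 12 with compound renewed at DIV 5 and 9 feeds. Active electrodes (mean firing ≥5 spikes/min) counted at DIV 5, 7, 9, 12; trapezoidal AUC across days, loss-of-signal versus DMSO.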
# [14] = target: rat Monoamine Oxidase, MAO-B, Peripheral (MAOBP), Maob (gene 25750) (UniProt P19643); experiment: NVS_ENZ_rMAOBP: NovaScreen (NVS) Enzymatic Assay for rat Monoamine Oxidase, MAO-B, Peripheral (MAOBP) (AID 2283242)
# [15] = target: Small conductance calcium-activated potassium channel protein 1 (Rattus norvegicus) (UniProt P70606); experiment: NVS_IC_rKCaCh: NovaScreen (NVS) Ion Channel Assay for rat Potassium Channel, Ca2+ Act., VI (KCaCh) (AID 2283336)
# Outline: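 Radioligand binding to rat forebrain membranes, cell-free, read 1 hour after dosing by filter-based scintillation counting. Compounds first run in duplicate at 25 uM, actives then in concentration series; loss of signal vs DMSO indicates displacement.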
# [16] = target: Ratio of Nucleoli Translocation and Cytoplasm, AR (gene 367) (UniProt P10275); experiment: UPITT_HCI_U2OS_AR_TIF2_Nucleoli_Cytoplasm_Ratio_Agonist: University of Pittsburgh U2OS Androgen Receptor-Transcriptional Intermediary Factor 2 (AR-TIF2) Agonism High Content Imaging Assay for Ratio of Nucleoli Translocation and Cytoplasm (AID 2284000);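 also: hits raise the red nucleolar to cytoplasm ratio above vehicle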
# Outline: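 Read-out first: nucleolar-to-cytoplasm ratio of red (AR-RFP) signal, quantified by high-content imaging in U2OS cells co-expressing TIF2-GFP. Activity is scored as signal increase over DMSO. Single-point screening used 20 uM final (0.2% DMSO).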
# [17] = target: Protein deacetylase HDAC6 (Homo sapiens) (UniProt Q9UBN7); experiment: NVS_ENZ_hHDAC6: NovaScreen (NVS) Enzymatic Assay for human Histone Deacetylase 6 (HDAC6) (AID 2283164)
# Outline: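 Recombinant human HDAC6 with fluorescent substrate, 1 h; product separated from substrate by electrophoretic mobility shift. Primary screen in duplicate at 25 uM; actives retested singly in concentration-response up to 50 uM, fitted relative to DMSO.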
# [18] = target: Estrogen receptor (Homo sapiens) (UniProt P03372); experiment: OT_ER_ERaERa_0480: Odyssey Thera (OT) 8-hour HEK293T Protein-Complementation Assay for Estrogen Receptor-alpha/-alpha Homodimer (AID 2283351);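 also: rise in fluorescence from reassembled reporter fragments on ERα LBD homodimer in nucleus or whole cell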
# Outline: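 The readout is complementation of fragments fused to the human ER alpha ligand-binding domain (aa 310-547), stably expressed in HEK293T cells. After 8 h of exposure, the increase in nuclear/cytoplasmic fluorescence was measured by laser scanning cytometry and fitted relative to DMSO.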
# [19] = CCTE_Mundy_HCI_iCellGluta_NOG_NeuronCount: CCTE's Neurite Outgrowth Assay in iCellGluta cells for Neuron Count, Mundy Lab (AID 2284340);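 also: cells fixed about 48 h after compound addition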
# Outline: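 Neuron count read by automated high-content imaging of Hoechst 33342 and betaIII-tubulin/Alexa Fluor-488 labelling in human iPSC glutamatergic neurons. Activity fitted relative to DMSO.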
# [20] = target: PPP2CA (gene 5515) (UniProt P67775); experiment: NVS_ENZ_hPPP2CA: NovaScreen (NVS) Enzymatic Assay for human Protein Phosphatase 2 Aatalytic subunit Alpha (PPP2CA) (AID 2283199)
# Outline: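 Recombinant human PPP2CA with fluorescent substrate; product separated from substrate by electrophoretic mobility shift, read 1.33 h after dosing. Duplicate single-point at 25 uM, then singleton concentration-response up to 50 uM; loss of signal versus DMSO.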
smiles,measurement,setting,value
C=CC(=O)OC,AC50,[1],inconclusive: 1.78 µM
N#CC(Br)(Br)C(N)=O,AC50,[2],inconclusive: 25 µM
same,AC50,[3],inconclusive: 0.0554 µM
CCCCC(C#N)(Cn1cncn1)c1ccc(Cl)cc1 (centres undefined),AC50,[4],active: 19.5 µM
same,AC50,[5],inconclusive: 20 µM
ClCCOCCCl,AC50,[6],inconclusive: 3.24 µM
O=C(c1ccccc1)C(Cl)Cl,outcome,[1],inactive
COP(=S)(OC)SCN1C(=O)c2ccccc2C1=O,AC50,[7],active: 3.44 µM
same,AC50,[8],inconclusive: 25 µM
CCCCCCCCCCCCc1cccc(S(=O)(=O)O)c1,AC50,[9],active: 19.6 µM
same,outcome,[10],inactive
same,AC50,[11],active: 14.8 µM
CN(C)[C@@H]1C(=O)C(C(N)=O)=C(O)[C@@]2(O)C(=O)C3=C(O)c4c(O)cccc4[C@@](C)(O)[C@H]3[C@H](O)[C@@H]12,AC50,[8],inconclusive: 25 µM
S=C1NCCN1,AC50,[12],inconclusive: 0.0112 µM
same,AC50,[13],active: 3.82 µM
CCCCCCCCCCCCOS(=O)(=O)O,AC50,[9],active: 36.5 µM
FC(F)C(F)(F)OCC(Cn1cncn1)c1ccc(Cl)cc1Cl (centres undefined),outcome,[14],inactive
c1ccc(-c2ccccc2)cc1,outcome,[15],inactive
same,AC50,[16],inconclusive: 50 µM
CCNC(=O)NC(=O)C(C#N)=NOC,AC50,[14],inconclusive: 25 µM
same,AC50,[2],inconclusive: 25 µM
CNc1cnn(-c2cccc(C(F)(F)F)c2)c(=O)c1Cl,outcome,[3],inactive
same,outcome,[5],inactive
c1ccc(OP(Oc2ccccc2)Oc2ccccc2)cc1,AC50,[17],inconclusive: 0.373 µM
same,AC50,[15],inconclusive: 25 µM
CC(C)Nc1nc(Cl)nc(NC(C)C)n1,outcome,[4],inactive
same,AC50,[18],inconclusive: 50 µM
CC1(C)CON(Cc2ccccc2Cl)C1=O,AC50,[14],inconclusive: 25 µM
CCOP(=S)(OCC)Oc1ccc([N+](=O)[O-])cc1,outcome,[19],inactive
O=C(O)COc1ccc(Cl)cc1Cl,AC50,[13],active: 50 µM
same,AC50,[19],inconclusive: 50 µM
COc1cc(OC)nc(Oc2cccc(Oc3nc(OC)cc(OC)n3)c2C(=O)O)n1,AC50,[16],inconclusive: 50 µM
CCOC(=O)CC(SP(=O)(OC)OC)C(=O)OCC (centres undefined),AC50,[20],inconclusive: 0.402 µM
same,AC50,[12],inconclusive: 46 µM
same,AC50,[13],inconclusive: 0.01 µM
CCCC(=NOCC)C1=C(O)CC(CC(C)SCC)CC1=O (centres undefined),outcome,[11],inactive
same,AC50,[18],inconclusive: 50.5 µM
Nc1nc(N)nc(NC2CC2)n1,outcome,[6],inactive
C[C@@H]1C[C@@H]([C@H](O)CC2CC(=O)NC(=O)C2)C(=O)[C@@H](C)C1,AC50,[10],inconclusive: 0.163 µM
O=[N+]([O-])c1ccc(Cl)cc1,AC50,[20],inconclusive: 25 µM
same,outcome,[7],inactive
N#CC(Br)Br,AC50,[17],inconclusive: 0.356 µM
N#Cc1ccc(N(CC(N)=O)CC(F)(F)F)cc1C(F)(F)F,AC50,[15],inconclusive: 25 µM
CCOc1ccc(C(C)(C)COCc2cccc(Oc3ccccc3)c2)cc1,AC50,[18],inconclusive: 50 µM
COP(=O)(OC)OC,AC50,[16],inconclusive: 50 µM
O=C(O)C(F)(F)C(F)(F)C(F)(F)C(F)(F)C(F)(F)C(F)(F)C(F)(F)F,AC50,[20],active: 25 µM
same,AC50,[12],inconclusive: 14.7 µM
same,outcome,[19],inactive
FC(F)(F)C(F)(F)C(F)(F)C(F)(F)C(F)(F)C(F)(F)CCI,AC50,[17],inconclusive: 0.0436 µM

# Nothing new here: entries from further up.
smiles,measurement,setting,value
CCCC(=NOCC)C1=C(O)CC(CC(C)SCC)CC1=O (centres undefined),outcome,[11],inactive
same,AC50,[18],inconclusive: 50.5 µM
Nc1nc(N)nc(NC2CC2)n1,outcome,[6],inactive
